Assay results reported in doi:10.1101/2021.01.11.426220.
These are yes or no findings as the source states them, for the method shown. In cells and extracts the contact can be indirect. Here binding means that the protein was enriched with, or labelled near, the bait; the list need not be complete.

By UniProt entry, the sequences of proteins in these tests, tags left out.
UniProt P32495: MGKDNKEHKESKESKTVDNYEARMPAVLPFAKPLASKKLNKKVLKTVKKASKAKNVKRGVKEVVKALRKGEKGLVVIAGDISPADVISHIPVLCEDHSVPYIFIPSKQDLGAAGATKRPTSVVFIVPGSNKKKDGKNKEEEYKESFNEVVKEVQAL
UniProt P33322: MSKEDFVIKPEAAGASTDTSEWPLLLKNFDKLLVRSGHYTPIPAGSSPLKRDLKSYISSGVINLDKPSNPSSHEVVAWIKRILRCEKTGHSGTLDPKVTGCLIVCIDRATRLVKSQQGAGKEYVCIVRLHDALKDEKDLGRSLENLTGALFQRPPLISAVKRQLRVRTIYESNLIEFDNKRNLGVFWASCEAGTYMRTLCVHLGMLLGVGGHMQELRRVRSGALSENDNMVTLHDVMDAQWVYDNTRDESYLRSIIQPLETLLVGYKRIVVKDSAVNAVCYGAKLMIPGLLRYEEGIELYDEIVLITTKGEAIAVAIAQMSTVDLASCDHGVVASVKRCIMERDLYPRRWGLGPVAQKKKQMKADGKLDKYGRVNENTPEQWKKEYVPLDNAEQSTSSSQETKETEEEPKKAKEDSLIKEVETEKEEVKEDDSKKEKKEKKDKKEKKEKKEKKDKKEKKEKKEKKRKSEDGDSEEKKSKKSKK
UniProt P28007: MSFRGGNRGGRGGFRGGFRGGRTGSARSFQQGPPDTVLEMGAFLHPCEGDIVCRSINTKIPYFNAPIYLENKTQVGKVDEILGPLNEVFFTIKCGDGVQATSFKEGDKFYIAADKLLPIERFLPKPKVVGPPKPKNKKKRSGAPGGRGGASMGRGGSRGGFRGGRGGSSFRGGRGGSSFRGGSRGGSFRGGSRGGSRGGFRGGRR

B1: Imp4 (protein, UniProt P53941 1-290)
chain: MLRRQARERREYLYRKAQELQDSQLQQKRQIIKQALAQGKPLPKELAEDESLQKDFRYDQSLKESEEADDLQVDDEYAATSGIMDPRIIVTTSRDPSTRLSQFAKEIKLLFPNAVRLNRGNYVMPNLVDACKKSGTTDLVVLHEHRGVPTSLTISHFPHGPTAQFSLHNVVMRHDIINAGNQSEVNPHLIFDNFTTALGKRVVCILKHLFNAGPKKDSERVITFANRGDFISVRQHVYVRTREGVEIAEVGPRFEMRLFELRLGTLENKDADVEWQLRRFIRTANKKDYL
B2: Mpp10 (protein, UniProt P47083 1-593)
chain: MSELFGVLKSNAGRIILKDPSATSKDVKAYIDSVINTCKNGSITKKAELDEITVDGLDANQVWWQVKLVLDSIDGDLIQGIQELKDVVTPSHNLSDGSTLNSSSGEESELEEAESVFKEKQMLSADVSEIEEQSNDSLSENDEEPSMDDEKTSAEAAREEFAEEKRISSGQDERHSSPDPYGINDKFFDLEKFNRDTLAAEDSNEASEGSEDEDIDYFQDMPSDDEEEEAIYYEDFFDKPTKEPVKKHSDVKDPKEDEELDEEEHDSAMDKVKLDLFADEEDEPNAEGVGEASDKNLSSFEKQQIEIRKQIEQLENEAVAEKKWSLKGEVKAKDRPEDALLTEELEFDRTAKPVPVITSEVTESLEDMIRRRIQDSNFDDLQRRTLLDITRKSQRPQFELSDVKSSKSLAEIYEDDYTRAEDESALSEELQKAHSEISELYANLVYKLDVLSSVHFVPKPASTSLEIRVETPTISMEDAQPLYMSNASSLAPQEIYNVGKAEKDGEIRLKNGVAMSKEELTREDKNRLRRALKRKRSKANLPNVNKRSKRNDVVDTLSKAKNITVINQKGEKKDVSGKTKKSRSGPDSTNIKL

Target: myc-tagged Nhp2 (S. cerevisiae) (UniProt P32495)
Experiment: affinity purification with mass spectrometry

binding, binds:
Cbf5 (from UniProt P33322 1-483)
Gar1 (from UniProt P28007 1-205)
B1
B2
